From PMC9636508
No constants are given. Whether binding was seen depends on the method and setting. Binding seen in cells or lysates may run through a third protein. Here binding means that the protein was enriched with, or labelled near, the bait; the list need not be complete.

Chains of the proteins cited; added tags and fusions are not shown.
UniProt Q9UNF0: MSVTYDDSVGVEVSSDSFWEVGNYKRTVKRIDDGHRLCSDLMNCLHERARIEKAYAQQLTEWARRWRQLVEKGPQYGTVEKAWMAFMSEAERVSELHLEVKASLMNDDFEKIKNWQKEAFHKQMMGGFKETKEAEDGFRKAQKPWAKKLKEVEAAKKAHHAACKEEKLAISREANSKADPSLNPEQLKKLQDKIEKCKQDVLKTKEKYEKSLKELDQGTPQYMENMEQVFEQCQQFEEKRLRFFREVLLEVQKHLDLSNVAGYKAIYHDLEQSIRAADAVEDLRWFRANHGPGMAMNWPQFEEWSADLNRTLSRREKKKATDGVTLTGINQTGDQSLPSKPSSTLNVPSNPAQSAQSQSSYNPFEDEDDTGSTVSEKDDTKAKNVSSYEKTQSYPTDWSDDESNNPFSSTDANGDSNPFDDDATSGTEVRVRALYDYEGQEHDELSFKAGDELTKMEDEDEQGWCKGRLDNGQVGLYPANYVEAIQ

B1: ARHGAP17 (protein, UniProt Q68EM7 1-881)
chain: MKKQFNRMKQLANQTVGRAEKTEVLSEDLLQIERRLDTVRSICHHSHKRLVACFQGQHGTDAERRHKKLPLTALAQNMQEASTQLEDSLLGKMLETCGDAENQLALELSQHEVFVEKEIVDPLYGIAEVEIPNIQKQRKQLARLVLDWDSVRARWNQAHKSSGTNFQGLPSKIDTLKEEMDEAGNKVEQCKDQLAADMYNFMAKEGEYGKFFVTLLEAQADYHRKALAVLEKTLPEMRAHQDKWAEKPAFGTPLEEHLKRSGREIALPIEACVMLLLETGMKEEGLFRIGAGASKLKKLKAALDCSTSHLDEFYSDPHAVAGALKSYLRELPEPLMTFNLYEEWTQVASVQDQDKKLQDLWRTCQKLPPQNFVNFRYLIKFLAKLAQTSDVNKMTPSNIAIVLGPNLLWARNEGTLAEMAAATSVHVVAVIEPIIQHADWFFPEEVEFNVSEAFVPLTTPSSNHSFHTGNDSDSGTLERKRPASMAVMEGDLVKKESFGVKLMDFQAHRRGGTLNRKHISPAFQPPLPPTDGSTVVPAGPEPPPQSSRAESSSGGGTVPSSAGILEQGPSPGDGSPPKPKDPVSAAVPAPGRNNSQIASGQNQPQAAAGSHQLSMGQPHNAAGPSPHTLRRAVKKPAPAPPKPGNPPPGHPGGQSSSGTSQHPPSLSPKPPTRSPSPPTQHTGQPPGQPSAPSQLSAPRRYSSSLSPIQAPNHPPPQPPTQATPLMHTKPNSQGPPNPMALPSEHGLEQPSHTPPQTPTPPSTPPLGKQNPSLPAPQTLAGGNPETAQPHAGTLPRPRPVPKPRNRPSVPPPPQPPGVHSAGDSSLTNTAPTASKIVTDSNSRVSEPHRSIFPEMHSDSASKDVPGRILLDIDNDTESTAL
B2: TCOF1 (protein, UniProt Q13428 1-1488)
chain: MAEARKRRELLPLIYHHLLRAGYVRAAREVKEQSGQKCFLAQPVTLLDIYTHWQQTSELGRKRKAEEDAALQAKKTRVSDPISTSESSEEEEEAEAETAKATPRLASTNSSVLGADLPSSMKEKAKAETEKAGKTGNSMPHPATGKTVANLLSGKSPRKSAEPSANTTLVSETEEEGSVPAFGAAAKPGMVSAGQADSSSEDTSSSSDETDVEGKPSVKPAQVKASSVSTKESPARKAAPAPGKVGDVTPQVKGGALPPAKRAKKPEEESESSEEGSESEEEAPAGTRSQVKASEKILQVRAASAPAKGTPGKGATPAPPGKAGAVASQTKAGKPEEDSESSSEESSDSEEETPAAKALLQAKASGKTSQVGAASAPAKESPRKGAAPAPPGKTGPAVAKAQAGKREEDSQSSSEESDSEEEAPAQAKPSGKAPQVRAASAPAKESPRKGAAPAPPRKTGPAAAQVQVGKQEEDSRSSSEESDSDREALAAMNAAQVKPLGKSPQVKPASTMGMGPLGKGAGPVPPGKVGPATPSAQVGKWEEDSESSSEESSDSSDGEVPTAVAPAQEKSLGNILQAKPTSSPAKGPPQKAGPVAVQVKAEKPMDNSESSEESSDSADSEEAPAAMTAAQAKPALKIPQTKACPKKTNTTASAKVAPVRVGTQAPRKAGTATSPAGSSPAVAGGTQRPAEDSSSSEESDSEEEKTGLAVTVGQAKSVGKGLQVKAASVPVKGSLGQGTAPVLPGKTGPTVTQVKAEKQEDSESSEEESDSEEAAASPAQVKTSVKKTQAKANPAAARAPSAKGTISAPGKVVTAAAQAKQRSPSKVKPPVRNPQNSTVLARGPASVPSVGKAVATAAQAQTGPEEDSGSSEEESDSEEEAETLAQVKPSGKTHQIRAALAPAKESPRKGAAPTPPGKTGPSAAQAGKQDDSGSSSEESDSDGEAPAAVTSAQVIKPPLIFVDPNRSPAGPAATPAQAQAASTPRKARASESTARSSSSESEDEDVIPATQCLTPGIRTNVVTMPTAHPRIAPKASMAGASSSKESSRISDGKKQEGPATQVSKKNPASLPLTQAALKVLAQKASEAQPPVARTQPSSGVDSAVGTLPATSPQSTSVQAKGTNKLRKPKLPEVQQATKAPESSDDSEDSSDSSSGSEEDGEGPQGAKSAHTLGPTPSRTETLVEETAAESSEDDVVAPSQSLLSGYMTPGLTPANSQASKATPKLDSSPSVSSTLAAKDDPDGKQEAKPQQAAGMLSPKTGGKEAASGTTPQKSRKPKKGAGNPQASTLALQSNITQCLLGQPWPLNEAQVQASVVKVLTELLEQERKKVVDTTKESSRKGWESRKRKLSGDQPAARTPRSKKKKKLGAGEGGEASVSPEKTSTTSKGKAKRDKASGDVKEKKGKGSLGSQGAKDEPEEELQKGMGTVEGGDQSNPKSKKEKKKSDKRKKDKEKKEKKKKAKKASTKDSESPSQKKKKKKKKTAEQTV
B3: WIPF2 (protein, UniProt Q8TF74 1-440)
chain: MPIPPPPPPPPGPPPPPTFHQANTEQPKLSRDEQRGRGALLQDICKGTKLKKVTNINDRSAPILEKPKGSSGGYGSGGAALQPKGGLFQGGVLKLRPVGAKDGSENLAGKPALQIPSSRAAAPRPPVSAASGRPQDDTDSSRASLPELPRMQRPSLPDLSRPNTTSSTGMKHSSSAPPPPPPGRRANAPPTPLPMHSSKAPAYNREKPLPPTPGQRLHPGREGPPAPPPVKPPPSPVNIRTGPSGQSLAPPPPPYRQPPGVPNGPSSPTNESAPELPQRHNSLHRKTPGPVRGLAPPPPTSASPSLLSNRPPPPARDPPSRGAAPPPPPPVIRNGARDAPPPPPPYRMHGSEPPSRGKPPPPPSRTPAGPPPPPPPPLRNGHRDSITTVRSFLDDFESKYSFHPVEDFPAPEEYKHFQRIYPSKTNRAARGAPPLPPILR
B4: SH3BP1, found with the PACSIN2 bait (protein, UniProt Q9Y3L3 1-701)
chain: MMKRQLHRMRQLAQTGSLGRTPETAEFLGEDLLQVEQRLEPAKRAAHNIHKRLQACLQGQSGADMDKRVKKLPLMALSTTMAESFKELDPDSSMGKALEMSCAIQNQLARILAEFEMTLERDVLQPLSRLSEEELPAILKHKKSLQKLVSDWNTLKSRLSQATKNSGSSQGLGGSPGSHSHTTMANKVETLKEEEEELKRKVEQCRDEYLADLYHFVTKEDSYANYFIRLLEIQADYHRRSLSSLDTALAELRENHGQADHSPSMTATHFPRVYGVSLATHLQELGREIALPIEACVMMLLSEGMKEEGLFRLAAGASVLKRLKQTMASDPHSLEEFCSDPHAVAGALKSYLRELPEPLMTFDLYDDWMRAASLKEPGARLQALQEVCSRLPPENLSNLRYLMKFLARLAEEQEVNKMTPSNIAIVLGPNLLWPPEKEGDQAQLDAASVSSIQVVGVVEALIQSADTLFPGDINFNVSGLFSAVTLQDTVSDRLASEELPSTAVPTPATTPAPAPAPAPAPAPALASAATKERTESEVPPRPASPKVTRSPPETAAPVEDMARRTKRPAPARPTMPPPQVSGSRSSPPAPPLPPGSGSPGTPQALPRRLVGSSLRAPTVPPPLPPTPPQPARRQSRRSPASPSPASPGPASPSPVSLSNPAQVDLGAATAEGGAPEAISGVPTPPAIPPQPRPRSLASETN

molecular target: PACSIN2, bait of the tandem affinity purification (UniProt Q9UNF0); test: affinity purification with mass spectrometry; tandem affinity purification with PACSIN2 as bait; cells not told

binding, binds:
B1
B2
B3
B4
